Some results were stated once for a whole list of compounds, not compound by compound. For some of these results: For at least one compound, name, drawing or mass did not settle the structure.
Experiments:
GLP-1R = GLP-1R (Homo sapiens, UniProt P43220); experiment: GLP-1R cAMP experiment (HTRF cAMP agonist detection); format: cell-based
Experimental: The initial concentration was 500 nM, the compounds were diluted according to a 4-fold gradient in a total of 10 concentrations, and the diluent was dimethyl sulfoxide.
• 1) 100 nL of each compound was transferred to a OptiPlate 384-well plate by using an Echo liquid transfer system; and • 2) the 384-well plate was centrifuged at 1000 rpm for 5 s.
• 1) According to a conventional cell thawing method, a GLP-1R-HEK293 cell line was rapidly thawed in a 37° C. water bath; • 2) the cell suspension was transferred to a 15 mL centrifuge tube containing 10 mL of 1×HBSS solution; • 3) at room temperature, the tube was centrifuged at 1000 rpm for 5 min, to collect cells; 4) a supernatant was discarded carefully, and attention was paid to avoid sucking away the cells; • 5) the centrifuge tube was flicked gently, so that the cells were loosened, and 10 mL of 1×HBSS solution was added to resuspend the cells. The cells were blown and beaten up and down by using a sterile pipette, until the cells were blown and beaten to a single-cell state; • 6) the cells were counted by using a Vi-cell counter, to determine the cell concentration and determine the cell activity; • 7) GLP-1R-HEK293 cells were resuspended in a cAMP detection buffer solution (from the above cAMP detection kit), and the concentration was 2.0×10^5/mL; and 8) 10 μL of the GLP-1R-HEK293 cells was transferred into the OptiPlate 384-well plate. 2.4 HTRF cAMP Agonist Detection • 1) The 384-well plate was incubated at room temperature for 20 min, then a cAMP detection reagent (from the above cAMP detection kit) was added; • 2) an electric multi-channel pipette was used to add 10 μL of the cAMP detection reagent to each well; • 3) the 384-well plate was covered by using a TopSeal-A film, and incubated at room temperature for 60 min; and • 4) the TopSeal-A film was removed, and a signal on an Envision instrument was read.

Chains of the proteins cited; added tags and fusions are not shown. Residues count along the entry.
UniProt P43220, 24-463: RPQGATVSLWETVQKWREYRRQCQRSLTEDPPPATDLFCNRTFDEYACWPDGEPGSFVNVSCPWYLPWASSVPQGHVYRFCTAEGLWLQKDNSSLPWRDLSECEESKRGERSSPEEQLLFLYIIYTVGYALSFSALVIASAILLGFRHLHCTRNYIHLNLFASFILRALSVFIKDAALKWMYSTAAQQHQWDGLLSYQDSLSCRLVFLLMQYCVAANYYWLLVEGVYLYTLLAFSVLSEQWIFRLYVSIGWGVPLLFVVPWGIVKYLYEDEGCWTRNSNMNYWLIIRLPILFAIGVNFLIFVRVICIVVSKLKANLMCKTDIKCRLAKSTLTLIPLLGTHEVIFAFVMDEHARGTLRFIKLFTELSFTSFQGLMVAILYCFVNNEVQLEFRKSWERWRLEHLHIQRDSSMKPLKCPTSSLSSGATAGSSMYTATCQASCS

[1] = test system: hGLP-1R transgenic mouse B-hGLP-1R; experiment: Mouse intraperitoneal glucose tolerance test (IPGTT); format: in vivo; details: hGLP-1R mice, 10 mg/kg oral gavage, FIG. 1B
Source text: Specific steps were as follows: • 1) After the arrival of experimental animals (hGLP-1R transgenic mouse B-hGLP-1R, SPF-grade mouse, male, 6-8 weeks, and purchased from Baiosaitu Jiangsu Gene Biotechnology Co., Ltd.), all experimental animals were divided into one animal per cage and fed and adapted for 7 days before the start of the experiment (during which the health status of the animals was observed). At least 3 days before the start of IPGTT, the animals were weighed and solvent (0.5% methylcellulose solution) intragastric administration and intraperitoneal saline injection were performed. • 2) On the day before the experiment, the experimental animals were fasted overnight (14 h, 19:00-9:00), and at 9:00 am, the experimental animals were weighed and blood was collected from tail tips to measure the blood glucose.

GLP-1R agonist effect (GLP-1R) | SMILES | significance (P) of blood glucose AUC0-120 compared to hGLP-1R+solvent group [1]
effective GLP-1R agonist effect | C#Cc1ccc(COc2cccc(C3CCN(Cc4nc5ccc(C(=O)O)cc5n4C[C@@H]4CCO4)CC3)n2)c(F)c1 [Compound 1] | –
effective GLP-1R agonist effect | C#Cc1ccc(COc2cccc(N3CCN(Cc4nc5ccc(C(=O)O)cc5n4C[C@@H]4CCO4)CC3)n2)cc1 [Compound 7] | –
effective GLP-1R agonist effect | C#Cc1ccc(COc2cccc(N3CCN(Cc4nc5ccc(C(=O)O)nc5n4C[C@@H]4CCO4)CC3)n2)c(F)c1 [Compound 9] | –
effective GLP-1R agonist effect | C#Cc1ccc(COc2nc(N3CCN(Cc4nc5ccc(C(=O)O)cc5n4C[C@@H]4CCO4)CC3)ccc2F)c(F)c1 [Compound 10] | –
effective GLP-1R agonist effect | C#Cc1ccc(COc2cccc(N3CCN(Cc4nc5c(F)cc(C(=O)O)cc5n4C[C@@H]4CCO4)CC3)n2)c(Cl)c1 [Compound 12] | –
effective GLP-1R agonist effect | C#Cc1ccc(COc2nc(N3CCN(Cc4nc5ccc(C(=O)O)cc5n4C[C@@H]4CCO4)CC3)ccc2F)cc1 [Compound 15] | –
effective GLP-1R agonist effect | C#Cc1ccc(COc2nc(N3CCN(Cc4nc5ccc(C(=O)O)nc5n4C[C@@H]4CCO4)CC3)ccc2F)c(Cl)c1 [Compound 18] | –
effective GLP-1R agonist effect | C#Cc1ccc(COc2nc(N3CCN(Cc4nc5ccc(C(=O)O)cc5n4C[C@@H]4CCO4)CC3)ccc2F)c(Cl)c1 [Compound 19] | –

Second part, the compound before the results:

SMILES | GLP-1R agonist effect (GLP-1R) | significance (P) of blood glucose AUC0-120 compared to hGLP-1R+solvent group [1]
C#Cc1ccc(COc2cccc(N3CCN(Cc4nc5ccc(C(=O)O)cc5n4C[C@@H]4CCO4)CC3)n2)c(F)c1 [Compound 2] | effective GLP-1R agonist effect | < 0.0001
CC#Cc1ccc(COc2cccc(N3CCN(Cc4nc5ccc(C(=O)O)cc5n4C[C@@H]4CCO4)CC3)n2)c(F)c1 [Compound 3] | effective GLP-1R agonist effect | –
O=C(O)c1ccc2nc(CN3CCN(c4cccc(OCc5ccc(C#CC6CC6)cc5F)n4)CC3)n(C[C@@H]3CCO3)c2c1 [Compound 4] | effective GLP-1R agonist effect | –
O=C(O)c1ccc2nc(CN3CCN(c4cccc(OCc5ccc(C#CCO)cc5F)n4)CC3)n(C[C@@H]3CCO3)c2c1 [Compound 5] | effective GLP-1R agonist effect | –
C#Cc1ccc(COc2cccc(N3CCN(Cc4nc5ccc(C(=O)O)cc5n4C[C@@H]4CCO4)CC3)n2)c(Cl)c1 [Compound 8] | effective GLP-1R agonist effect | –
C#Cc1ccc(COc2cccc(C3CCN(Cc4nc5c(F)cc(C(=O)O)cc5n4C[C@@H]4CCO4)CC3)n2)c(F)c1 [Compound 11] | effective GLP-1R agonist effect | –
C#Cc1ccc(COc2nc(N3CCN(Cc4nc5ccc(C(=O)O)nc5n4C[C@@H]4CCO4)CC3)ccc2F)cc1 [Compound 16] | effective GLP-1R agonist effect | –
C#Cc1ccc(COc2nc(N3CCN(Cc4nc5ccc(C(=O)O)nc5n4C[C@@H]4CCO4)CC3)ccc2F)c(F)c1 [Compound 17] | effective GLP-1R agonist effect | –
C#Cc1ccc(COc2nc(C3CCN(Cc4nc5ccc(C(=O)O)nc5n4C[C@@H]4CCO4)CC3)ccc2F)c(F)c1 [Compound 20] | effective GLP-1R agonist effect | –
N#Cc1ccc(COc2cccc(C3CCN(Cc4nc5ccc(C(=O)O)cc5n4C[C@@H]4CCO4)CC3)n2)c(F)c1 [PF-06882961, reference compound] | – | < 0.0001
